US11230581B2, “Peptides and combination of peptides for use in immunotherapy against ovarian cancer and other cancers” (Immatics Biotechnologies GmbH, priority 2015, dated 2022)

Legend:
additional tumor types = assay: LC-MS detection and over-presentation of the peptides on additional tumor types, cell lines and primary cultures; set-up: species or system human; details: for Other relevant organs/ cancerous diseases: Table 4A: additional tumor types on which the peptide was found, over-presented on more than 5% of measured tumor samples, or presented on more than 5% with ratio of geometric means tumor vs normal tissues larger than 3
ovarian cancer samples = assay: Relative LC-MS quantitation of HLA-presented peptides: presentation and over-presentation on ovarian cancer vs a panel of normal tissues (presentation score); set-up: species or system human; key: +++: very highly over-presented on tumors compared to a panel of normal tissues; ++: highly over-presented on tumors compared to a panel of normal tissues; +: over-presented on tumors compared to a panel of normal tissues; details: over-presentation on tumors compared to a panel of normal tissues
[1] = additional tumor types with over-presentation on more than 5% of the measured tumor samples, or presentation on more than 5% with ratio of geometric means tumor vs normal tissues larger than 3
[2] = amendment of Table 4: additional tumor types showing over-presentation (including specific presentation) on more than 5% of measured tumor samples, or presentation on more than 5% with ratio of geometric means tumor vs normal tissues larger than 3

Substance	Other relevant organs/ cancerous diseases (additional tumor types)	Additional organs/cancerous diseases (additional tumor types; [1])	Peptide Presentation (presentation score) (ovarian cancer samples)	Additional organs/cancerous diseases (additional tumor types; [2])
415 (LLDKVYSSV; listed as Homo sapiens) [compound 415]	NSCLC, HCC, Leukemia, Esophageal Cancer	Brain Cancer, CLL, BRCA, Urinary Bladder Cancer, Uterine Cancer, Gallbladder Cancer and Bile Duct Cancer, AML, NHL, HNSCC	+	
182 (MLLEAPGIFL; listed as Homo sapiens) [compound 182]			+++	CLL
568 (TLYDIAHTPGV; listed as Homo sapiens) [compound 568]	NSCLC, SCLC, CRC, Melanoma, Esophageal Cancer	CLL, Urinary Bladder Cancer, NHL, HNSCC	++	
546 (VMIAGKVAVV; listed as Homo sapiens) [compound 546]	Colon, Rectum, HCC	SCLC, Urinary Bladder Cancer, HNSCC	+	
21 (VLDELDMEL; listed as Homo sapiens) [compound 21]			+++	Melanoma
16 (VLFQGQASL; listed as Homo sapiens) [compound 16]			++	Melanoma, Uterine Cancer, AML, NHL
468 (YLRSVGDGETV; listed as Homo sapiens) [compound 468]	Leukemia, Melanoma	Uterine Cancer	+	
323 (IQIGEETVITV; listed as Homo sapiens) [compound 323]	NSCLC, SCLC, PrC, Leukemia, Melanoma, Esophageal Cancer, Uterine Cancer, Gallbladder Cancer, Bile Duct Cancer	CRC, CLL, BRCA	+	
333 (FLPDANSSV; listed as Homo sapiens) [compound 333]	NSCLC, Brain Cancer, PrC, Leukemia, BrCa, Esophageal Cancer, Urinary bladder Cancer	HCC, Melanoma	++	
164 (ALLPQPKNLTV; listed as Homo sapiens) [compound 164]			+++	Melanoma
68 (SLMELPRGLFL; listed as Homo sapiens) [compound 68]	Brain Cancer		+++	
421 (RLPETLPSL; listed as Homo sapiens) [compound 421]	NSCLC, SCLC, GC, CRC, PC		++	
458 (SLIDKLYNI; listed as Homo sapiens) [compound 458]		SCLC, Brain Cancer, Melanoma, Urinary Bladder Cancer, AML, HNSCC	+++	
440 (ALADGVTMQV; listed as Homo sapiens) [compound 440]	Gallbladder, Bile duct	SCLC, BRCA, Melanoma, Uterine Cancer	+++	
346 (LLDSKVPSV; listed as Homo sapiens) [compound 346]	SCLC, HCC, PC, Esophageal Cancer, Urinary bladder Cancer, Gallbladder Cancer, Bile Duct Cancer	HNSCC	++	
531 (YTLPIASSIRL; listed as Homo sapiens) [compound 531]	SCLC, CRC, HCC	BRCA	+	
321 (GLFEDVTQPGILL; listed as Homo sapiens) [compound 321]	Leukemia, Melanoma	CLL	++	
178 (ALTEIAFVV; listed as Homo sapiens) [compound 178]	CRC, HCC, PrC		+	SCLC, CLL, BRCA, Melanoma, Uterine Cancer
491 (GLNDRSDAV; listed as Homo sapiens) [compound 491]	Esophageal Cancer, Endometrium	BRCA, AML, HNSCC	+++	
30 (LILDWVPYI; listed as Homo sapiens) [compound 30]			++	Melanoma, Uterine Cancer, HNSCC

Substance	Other relevant organs/ cancerous diseases (additional tumor types)	Additional organs/cancerous diseases (additional tumor types; [1])	Peptide Presentation (presentation score) (ovarian cancer samples)	Additional organs/cancerous diseases (additional tumor types; [2])
455 (SLLKEPQKVQL; listed as Homo sapiens) [compound 455]	RCC	CLL, Melanoma, HNSCC	+	
243 (LLLNELPSV; listed as Homo sapiens) [compound 243]	Colon, Rectum, Esophageal Cancer	SCLC, BRCA, Melanoma, Urinary Bladder Cancer, Gallbladder Cancer and Bile Duct Cancer, AML, HNSCC	++	
119 (FLYIGDIVSL; listed as Homo sapiens) [compound 119]	Leukemia		++	CLL, Melanoma
209 (KLIESKHEV; listed as Homo sapiens) [compound 209]	Brain Cancer, HCC	Melanoma, Uterine Cancer	+++	
67 (TLLAEALVTV; listed as Homo sapiens) [compound 67]			+++	SCLC
2 (SLLEADPFL; listed as Homo sapiens) [compound 2]	Esophageal Cancer		+++	CLL, Uterine Cancer, Gallbladder Cancer and Bile Duct Cancer
398 (KLLEEDGTIITL; listed as Homo sapiens) [compound 398]	Colon, Rectum, PC	BRCA, Esophageal Cancer, Gallbladder Cancer and Bile Duct Cancer	+	
201 (RLVDYLEGI; listed as Homo sapiens) [compound 201]	NSCLC, HCC, Esophageal Cancer	SCLC, Uterine Cancer, Gallbladder Cancer and Bile Duct Cancer, AML	+++	
575 (YLISQVEGHQV; listed as Homo sapiens) [compound 575]	CRC, HCC, MCC, Melanoma, Esophageal Cancer	NSCLC, SCLC, BRCA, Urinary Bladder Cancer, HNSCC	+	
280 (VLPDPEVLEAV; listed as Homo sapiens) [compound 280]	Prostate, Leukemia	Gallbladder Cancer and Bile Duct Cancer, NHL, SCLC	+	
483 (ALTDIVSQV; listed as Homo sapiens) [compound 483]	Urinary bladder Cancer	NSCLC, SCLC, BRCA, Uterine Cancer, Gallbladder Cancer and Bile Duct Cancer, HNSCC	+	
237 (ALLEASGTLLL; listed as Homo sapiens) [compound 237]	SCLC, HCC, PrC, Leukemia, Uterine Cancer, Gallbladder Cancer, Bile Duct Cancer	BRCA, AML	+++	
457 (SLLPGNLVEKV; listed as Homo sapiens) [compound 457]	NSCLC, HCC, Leukemia, Melanoma		+++	
45 (SLWQDIPDV; listed as Homo sapiens) [compound 45]	NSCLC, SCLC		+++	BRCA, Urinary Bladder Cancer, HNSCC
59 (IMEDIILTL; listed as Homo sapiens) [compound 59]	SCLC, Leukemia, BrCa		+++	
627 (KLLETELLQEI; listed as Homo sapiens) [compound 627]	NSCLC, SCLC, CRC, HCC, MCC, Melanoma	CLL, Urinary Bladder Cancer	+	
514 (ILVDWLVQV; listed as Homo sapiens) [compound 514]	NSCLC, SCLC, RCC, Brain Cancer, GC, CRC, HCC, Melanoma, Esophageal Cancer, Urinary bladder Cancer, Uterine Cancer	BRCA, Gallbladder Cancer and Bile Duct Cancer, AML, NHL, HNSCC	+++	
506 (KLLGKVETA; listed as Homo sapiens) [compound 506]	NSCLC, Brain Cancer, Leukemia, Esophageal Cancer	CLL, NHL	+++	
370 (SLLQDLVSV; listed as Homo sapiens) [compound 370]	HCC	BRCA, Melanoma, Gallbladder Cancer and Bile Duct Cancer, HNSCC	+	
134 (YLQELIFSV; listed as Homo sapiens) [compound 134]	Endometrium		+++	CLL, HNSCC
